Reference: publication doi:10.1101/465930
No constants are given. Whether binding was seen depends on the method and setting. For some assays here: In cells and extracts the contact can be indirect. Some results given as binding are weak or reduced against the parent protein; the word gives no strength. For some assays here: Tags and fused reporters may be left off the sequences shown.

By UniProt entry, the sequences of proteins in these tests, tags left out. Residues count along the entry.
UniProt P16092, residues 22-822: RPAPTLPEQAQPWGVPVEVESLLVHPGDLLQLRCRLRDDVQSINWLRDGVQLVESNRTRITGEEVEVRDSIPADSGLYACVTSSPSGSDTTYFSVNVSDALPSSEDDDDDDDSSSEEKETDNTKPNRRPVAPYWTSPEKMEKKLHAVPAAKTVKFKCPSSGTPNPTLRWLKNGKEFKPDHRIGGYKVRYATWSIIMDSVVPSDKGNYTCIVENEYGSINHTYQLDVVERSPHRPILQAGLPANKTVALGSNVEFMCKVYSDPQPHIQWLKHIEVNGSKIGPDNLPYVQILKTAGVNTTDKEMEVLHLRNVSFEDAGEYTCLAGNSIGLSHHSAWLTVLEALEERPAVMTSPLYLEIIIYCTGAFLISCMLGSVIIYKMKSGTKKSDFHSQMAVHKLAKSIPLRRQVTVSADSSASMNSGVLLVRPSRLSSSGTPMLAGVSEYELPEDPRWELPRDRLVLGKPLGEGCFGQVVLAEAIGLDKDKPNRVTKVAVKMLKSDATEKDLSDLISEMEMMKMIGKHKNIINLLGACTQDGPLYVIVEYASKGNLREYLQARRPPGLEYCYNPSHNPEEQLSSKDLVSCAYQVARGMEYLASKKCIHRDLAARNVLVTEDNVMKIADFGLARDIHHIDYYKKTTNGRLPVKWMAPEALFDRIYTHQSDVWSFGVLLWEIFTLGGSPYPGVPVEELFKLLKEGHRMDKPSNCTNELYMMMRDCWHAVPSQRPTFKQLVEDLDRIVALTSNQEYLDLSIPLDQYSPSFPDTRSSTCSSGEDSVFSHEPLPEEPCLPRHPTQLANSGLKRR

Key:
Ncad-Fc = target: T1, Ncad-Fc (UniProt P19022); assay: cell adhesion to a coated surface
T1 sequence: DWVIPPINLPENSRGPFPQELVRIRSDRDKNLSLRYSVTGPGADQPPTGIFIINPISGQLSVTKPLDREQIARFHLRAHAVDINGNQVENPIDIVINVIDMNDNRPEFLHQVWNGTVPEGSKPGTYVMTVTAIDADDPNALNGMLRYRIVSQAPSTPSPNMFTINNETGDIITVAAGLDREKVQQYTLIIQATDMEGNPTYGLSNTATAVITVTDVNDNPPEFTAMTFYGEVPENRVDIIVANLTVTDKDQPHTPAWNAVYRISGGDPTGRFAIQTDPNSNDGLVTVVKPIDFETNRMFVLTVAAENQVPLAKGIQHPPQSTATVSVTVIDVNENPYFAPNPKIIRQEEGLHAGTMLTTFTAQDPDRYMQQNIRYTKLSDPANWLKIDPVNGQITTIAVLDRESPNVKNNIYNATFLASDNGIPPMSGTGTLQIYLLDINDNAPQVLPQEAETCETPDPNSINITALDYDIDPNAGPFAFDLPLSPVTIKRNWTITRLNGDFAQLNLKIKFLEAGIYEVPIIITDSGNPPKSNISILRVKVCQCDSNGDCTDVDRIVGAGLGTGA

GFP-FGFR1 (mouse) = GFP-FGFR1 (mouse) (UniProt P16092); assay: co-IP

binding (Ncad-Fc): binds
binding (GFP-FGFR1 (mouse)): binds
Substance: DsRed-Ncad (from UniProt P15116 160-906)
